Experimental data reported in PMC8428568, “Discovery of re-purposed drugs that slow SARS-CoV-2 replication in human cells” (PLoS Pathogens, 2021).
Read-outs that look alike come from different tables or passages of the source.

What was measured:
[1] = tested on: SARS-CoV-2-ΔOrf7a-NLuc virus; test: microbe, parasite or virus in culture; type: cell-based
[2] = tested on: SARS-CoV-2-ΔOrf7a-NLuc virus; test: microbe, parasite or virus in culture; type: cell-based; remark: listed apart in the source
recombinant NLuc = type: biochemical; conditions: recombinant NLuc activity relative to DMSO
[3] = tested on: SARS-CoV-2-ΔOrf7a-NLuc virus; test: Post-infection treatment: Vero cells infected 24 hrs with SARS-CoV-2-ΔOrf7a-NLuc, then compound for 48 hrs, bioluminescence; type: cell-based; conditions: change in replication relative to DMSO, then treated 48 hrs
HUH7 cells = conditions: HUH7 screen

CC(C)(C)c1ccc(C(=O)CCCN2CCC(OC(c3ccccc3)c3ccccc3)CC2)cc1 [Ebastine]
Mean relative luminescence (n=4) ([1]; HUH7 screen, […], relative luminescence): 0.01594
IC50 ([1]; Severe acute respiratory syndrome coronavirus 2, Huh-7, read-out: HUH7 IC50): 500 nM
% activity in Vero 100PFU screen [2]: 4%
IC50 ([2]; Severe acute respiratory syndrome coronavirus 2, Vero, read-out: Vero IC50): 5000 nM
Mean relative luminescence (n=4) ([2]; Vero screen, […], relative luminescence): 0.007931
Relative Recombinant NLUC (recombinant NLuc): 0.8576
Post-infection at IC50 [3]: -25%
PrestoBlue relative viability (HUH7 cells): 1.614
PrestoBlue relative viability (Vero cells; Vero cells, 10 μM, 1 = DMSO-treated infected cells): 0.6054
PrestoBlue relative viability (Vero cells; Vero screen): 0.6054
